Earlier results in patent publication US20160050959A1, “TABLET COMPRISING FRUCTOSE” (NATURALIA INGREDIENTS S.R.L., priority 2013, published 2016).

Conditions: in vivo; cited from earlier work

| Structure (SMILES) | glycemic index |
| --- | --- |
| O=C(CO)[C@@H](O)[C@H](O)[C@H](O)CO [fructose extracted from fruit, fructose] | 12 |
| O=C(CO)[C@@H](O)[C@H](O)[C@H](O)CO [fructose] | approximately 20 |
| O=C(CO)[C@@H](O)[C@H](O)[C@H](O)CO [“traditional” maize fructose, fructose] | 20 |
